Results reported in US11285127B2, “Compositions and methods for lowering triglycerides without raising LDL-C levels in a subject on concomitant statin therapy” (Amarin Pharmaceuticals Ireland Limited, priority 2013, dated 2022).
At least one compound was matched to its structure with a doubt left.

Test system: patients with fasting triglyceride levels >200 mg/dl and <500 mg/dl despite statin therapy
Assay: 12-week study: red blood cell fatty acids (EPA concentration, FADI ratios) by gas chromatography/flame ionization detection
Type: in vivo, human
Conditions: 4 g/day, placebo-adjusted, 12 weeks; listed as ethyl eicosapentaenoate
Method: A multi-center, placebo-controlled, randomized, double-blind, 12-week study was performed to evaluate the efficacy and safety of >96% E-EPA in patients with fasting triglyceride levels >200 mg/dl and <500 mg/dl despite statin therapy (the mean of two qualifying entry values needed to be >185 mg/dl and at least one of the values needed to be >200 mg/dl). The primary objective of the study was to determine the efficacy of >96% E-EPA 2 g daily and 4 g daily, compared to placebo, in lowering fasting TG levels in patients with high risk for cardiovascular disease and with fasting TG levels 200 mg/dl and <500 mg/dl, despite treatment to LDL-C goal on statin therapy. The secondary objectives of this study were the following: • 1. To determine the safety and tolerability of >96% E-EPA 2 g daily and 4 g daily; • 2. To determine the effect of >96% E-EPA on lipid and apolipoprotein profiles including total cholesterol (TC), non-high-density lipoprotein cholesterol (non-HDL-C), low density lipoprotein cholesterol (LDL-C), high density lipoprotein cholesterol (HDL-C), and […]; • 3. To determine the effect of >96% E-EPA on lipoprotein associated phospholipase A2 (Lp-PLA2) from baseline to week 12; • 4. To determine the effect of >96% E-EPA on low-density lipoprotein (LDL) particle number and size; • 5. […]

For `CC/C=C\C/C=C\C/C=C\C/C=C\C/C=C\CCCC(=O)OCC` [AMR101, ethyl eicosapentaenoate], which “FADI-16 (Palmitoleic acid/Palmitic acid, C16:1/C16:0), % Change, RBCs” value is on record?
The value was “significantly reduced”.

What about the “FADI-18 (Oleic acid/Stearic Acid, C18:1/C18:0), % Change, RBCs” value of the same molecule?
Its value is “significantly reduced”.
